Source: PMC10163288
Some of the results follow.

B1: il2ra_site2_3nfp_sap_18_mot_HHH_b2_05132_000000098_0001_38_52_H_._461c5b8021308318a9a61a4e77c13547_0001_af2_0001_0000900009_0000001_0_0001 (protein)
chain: SSSSSDESHEYLRAVLLLAEEASEEDPELARKLAELLERAIKDAGDEELQELVEELLERLSSSSS
B2: il2ra_site2_3nfp_sap_23_mot_HHH_b1_00050_000000292_0001_22_38_H_._HHH_b1_02222_af2_0001_0000800021_0000001_1_0001_af2pred_0001_af2pred (protein)
chain: SSSSSSSEEEEEVRELLEEAKQIEDPFEAFAVLADAAFLALELGDEELARRILKLASRLSSSSSS
B3: il2ra_site1_1z92_sap_15_mot_HHH_b2_00494_000000030_0001_41_54_H_._HHH_b2_01953_0001_0000500033_0000001_0_0001 (protein)
chain: DEEELLEEAEELAPNPSVRWVVRLFESALRTGNERRLRFLLQHLKDLASRDPRVREVLRLLEEVH
B4: il2ra_site1_3nfp_normal_mot_HHH_b2_01680_af2_000000278_0001_1_15_H_._HHH_b2_01154_af2_0001_0000400017_0000001_0_af2pred_0001_af2pred_swapped (protein)
chain: SSSSSELQRLFREIRELAKRGDPEEALKLAEEALKLAEELNNEAARRKLELAIRLIRRLNSSSSS
B5: il2ra_site1_2b5i_sap_6_mot_HHH_b1_05282_000000062_0001_1_18_H_._e7eb5d6140ef2dd7c28d54bc65c38495_0001_1_0001_0000400028_0000001_0_0001_af2pred_dldesign_0_af2pre … (protein)
chain: SSSSDPFELAERAFNEASRLFRAGKKEEAKKVLEDAIKELKKLGAEKLVAELEKFLKLVLGSSSS
B6: il2ra_site2_3nfp_normal_mot_HHH_b1_04762_000000120_0001_42_54_H_._HHH_b2_02003_0001_0000800040_0000001_0 (protein)
chain: SSSSDAEEYIRAALLLAERAARRNDPAAERHLKLIRLAIESKGDEEAEELLEEIERLLRELSSSS
B7: il2ra_site2_3nfp_normal_mot_HHH_b1_00660_af2_000000090_0001_40_57_H_._HHH_b2_03956_0001_0000500028_0000001_0_af2pred_0001_af2pred (protein)
chain: SSSSDEEEEQVERLLEEAKRLYENGNPEEAEKVLRRAADIAWELGNFELFAEILLLLEEIESSSS
B8: il2ra_site2_2erj_sap_23_mot_HHH_b1_06697_000000025_0001_41_54_H_._HHH_b2_03690_0001_0000400021_0000001_0_0001 (protein)
chain: SSSSDYEERVKELLEELRELLEEGDEEKFEELVFEVSQLIFENNDFELFAELTEIFEEFIRSSSS
B9: il2ra_site1_1z92_normal_mot_1581cc1c700002558836ca695aafbf97_0001_1_af2_000000099_0001_17_32_H_._HHH_b1_03943_0001_0000100005_0000001_0_af2pred_0001_af2pred (protein)
chain: SSSSSSSELEELVEELVREFGLSKKLEESLRRLLRSAQEAGISEEEIEKELRAFAEIAHSSSSSS
B10: il2ra_site2_2erj_normal_mot_HHH_b1_06099_000000027_0001_20_36_H_._b0b48449b8979d840ab1151e5fe11a36_0001_af2_0001_0000400013_0000001_0 (protein)
chain: DEELRELAELLRRGDREAYRLLLRLLIRIERGDPEAEEKLEEAIRLARELGDEYVVESLEALLEV
B11: il2ra_site2_2erj_sap_13_mot_HHH_b2_03387_af2_000000185_0001_39_52_H_._75aebd89e8525d44691031ba10cfd25b_0001_0001_0001000013_0000001_0_0001 (protein)
chain: SSSSNEESSELSREVFEELKKLFKEGDPEKVEELAEEAIERLEELGDPDAAETLRALLEHVSSSS
B12: il2ra_site2_2erj_sap_24_mot_HHH_b2_00907_000000126_0001_1_15_H_._HHH_b2_07963_af2_0001_0000300017_0000001_0_0001 (protein)
chain: SSSSSSEEKEVWEEVAELLLRALHVSEEEAKELLEEAKRLAEEVNDPFLRRYIEYVEKSLSSSSS
B13: il2ra_site1_2b5i_normal_mot_HHH_b2_04910_000000118_0001_1_19_H_._HHH_b1_04153_0001_0000100001_0000001_0_1_af2pred_dldesign_0_af2pred (protein)
chain: SSSSSDPAKEALELFLEANKLYQAGKEEEAKEKLEKALELAKKGKATSLLKMIESALKLISSSSS
B14: il2ra_site2_3nfp_sap_14_mot_HHH_b1_06613_af2_000000098_0001_23_40_H_._HHH_b2_05028_0001_0000600019_0000001_0_0001 (protein)
chain: SSSDKHHKIWELAHRAFKLLERGNPEEARELLEEAEELAEELNSDVARRSLEELLKAIEEHSSSS
B15: il2ra_site1_2b5i_normal_mot_HHH_b1_01495_af2_000000272_0001_42_56_H_._HHH_b2_08182_af2_0001_0000100001_0000001_1 (protein)
chain: SSSSSDEEEAAELFLEASRLFARGNREEAKELLEEALRLAEEGGDPKTAEDIRFMLERLSSSSSS
B16: il2ra_site2_2erj_sap_22_mot_678ce523d3521e26f84bf18760a59296_0001_000000113_0001_1_12_H_._HHH_b1_03364_0001_0000900007_0000001_1_0001 (protein)
chain: SSSSDRLRRLYELAVRIAKLLAEGDEEETEKAIEEAEELAEEEKSDNAKEILEDLKKRVNSSSSS
B17: il2ra_site2_2erj_normal_mot_HHH_b2_01204_af2_000000056_0001_19_34_H_._HHH_b2_00923_0001_0001000009_0000001_0 (protein)
chain: SSSSSDTEEEVERLLEEAKHIQDLEEVYRLLVEALHLASKVRDPELQRLVAKVVEEIAESSSSSS
B18: il2ra_site1_1z92_sap_15_mot_HHH_b1_00451_000000274_0001_21_37_H_._HHH_b1_03292_af2_0001_0000100003_0000001_0_0001_af2pred_0001_af2pred_1 (protein)
chain: SEEEIEEEIRELLGVPPEVVEKLLKLIAELSGSPPEEALKELTEIARFAGDPERVKRLIERLEKA
B19: il2ra_site1_3nfp_normal_mot_HHH_b1_03420_af2_000000029_0001_41_57_H_._HHH_b2_02183_af2_0001_0000500045_0000001_0 (protein)
chain: SSSSNEVREVQELLEELREAIREGDEELVKEIFKRLQELAEERNDELIEHLAREALELNRNSSSS
B20: il2ra_site2_3nfp_sap_14_mot_HHH_b2_00822_000000043_0001_41_55_H_._ec5fd73691b6872a0dd65f4fb8198062_0001_1_af2_0001_0000400039_0000001_1_0001 (protein)
chain: SVEERAEKLAEEANVPPDAAYAALALAYLLRDGDLTPEEEEKLRRDIERAVGDPELAELVIELAK
B21: il2ra_site1_1z92_normal_mot_HHH_b2_04375_000000267_0001_42_56_H_._0c3bf8cb9d93094680b22e24baf1e485_0001_0001_0000100014_0000001_0_af2pred_0001_af2pred_swapped (protein)
chain: SVLELIKEILEELGNPELARDVEYSIEVAERRGIPPENIVKFLRRWAERKGDPDLLRAIELAEER
B22: il2ra_site1_2b5i_normal_mot_HHH_b2_06557_000000121_0001_42_56_H_._HHH_b2_02609_af2_0001_0000100014_0000001_0_af2pred_dldesign_0_af2pred (protein)
chain: SSSSSEVEDEIDDLALEALRLYKAGKKEEAKELLEKALELAKKAKDEKRVKQLEELLKLLSSSSS
B23: il2ra_site1_3nfp_normal_mot_HHH_b1_01159_af2_000000107_0001_1_20_H_._HHH_b2_04366_af2_0001_0000300021_0000001_0 (protein)
chain: SSSSDEEHRKLEELFRELFELAKKGDEEEARRLAEEAEELAEELGSKLHLRSLRIALRLLESSSS
B24: il2ra_site2_2erj_normal_mot_64bd02d26d05ce9f1a62b616cea0b888_0001_af2_000000020_0001_36_49_H_._HHH_b2_04281_af2_0001_0000600036_0000001_0 (protein)
chain: SSSSDELEEVYRLLVRLLRLVAEGDEEEVQKVAEEVRRLAEELDSPNLEEMVENLERLLESSSSS
B25: il2ra_site1_2b5i_sap_19_mot_6641a0bf45b743e2eabc084d195d318e_0001_000000060_0001_53_65_H_._HEEHE_2518_0001_0000400042_0000001_0_0001_af2pred_dldesign_0_af2pred (protein)
chain: SSSSSGEVRRLLLEAERLIKAGKLEEARELLERALALARARGRTKLAAALEKILEDLEELSSSSS
B26: il2ra_site2_2erj_normal_mot_HHH_b1_04373_af2_000000118_0001_18_33_H_._HHH_b2_05536_af2_0001_0000400024_0000001_0 (protein)
chain: SSSSNEELRELYELAVKLLRLASEGDEEEFEKLAEELKRLAQELQSDTVEEAVEFLEELISSSSS
B27: il2ra_site2_3nfp_sap_17_mot_HHH_b1_06589_000000230_0001_37_50_H_._HHH_b2_07531_af2_0001_0000800044_0000001_0_0001 (protein)
chain: SSSSDLEERLRELLEELEELVEEGDKERFREVAREVSQLVWENNDFEAFARLAELLYKITSSSSS
B28: il2ra_site2_3nfp_normal_mot_HHH_b1_01086_000000225_0001_20_36_H_._HHH_eva_0065_af2_0001_0000500027_0000001_0_af2pred_0001_1_af2pred_swapped (protein)
chain: DPESEHLKFVIKLLIIAFRAGNISPEEAEELLEKALEEARRLGDEEAEKLAEEALEEIERAKESS
B29: il2ra_site2_3nfp_normal_mot_HHH_b1_06586_000000201_0001_1_18_H_._HHH_b2_00207_0001_0000400016_0000001_0 (protein)
chain: SSSSSDEREFREAVRSALRLAEQIPDERIRRLALEWARAVALMLGDEELERLVEEVERELSSSSS
B30: il2ra_site2_2erj_normal_mot_HHH_b2_07568_000000046_0001_18_34_H_._HHH_b2_05401_0001_0000100005_0000001_1 (protein)
chain: SSSSDVEELLREAEELLEKGNPEEAAKVLREASERVFRLGDFELFSRIAELVLKVFRALNSSSSS
B31: il2ra_site2_2erj_sap_25_mot_HHH_b2_03871_000000240_0001_40_57_H_._ems_p1-15H-GBL-16H-GABBL-16H_0175_0001_0001_0002_0001_0000900032_0000001_0_0001_af2pred_0001_a … (protein)
chain: SSSSSEAEEAFRKAEELVEEGNLEKAAAVASLAMKLALEEGDEELFKRILELSFELAELLNSSSS
B32: il2ra_site2_2erj_sap_19_mot_HHH_b2_07456_000000168_0001_40_55_H_._HHH_b1_03179_af2_0001_0000400015_0000001_0_0001 (protein)
chain: SSSSSDETLEALEEMAEEAFERGDREELEYLYEFLRLTAETSNDPKLRELLEFIEQLLEELSSSS
B33: il2ra_site1_2b5i_normal_mot_HHH_b2_04131_000000150_0001_1_16_H_._HHH_b1_07426_af2_0001_0000600027_0000001_0_af2pred_dldesign_0_af2pred (protein)
chain: SSSSSDPAAAKRRALELFRQLNELTDPEERRRLLEEAIELAEAAKNEKLLEILRRALEELSSSSS
B34: il2ra_site1_2b5i_normal_mot_HHH_b1_08745_af2_000000166_0001_39_57_H_._HHH_b1_08025_0001_0000100001_0000001_0_af2pred_0001_af2pred_1 (protein)
chain: SSSSSELAREVVELIEEANRLLENGNPEEARRVLEEALELAREGNNPALERFVESALRATESSSS
B35: il2ra_site1_2b5i_normal_mot_HHH_b1_02271_000000068_0001_1_16_H_._HHH_b2_04126_af2_0001_0000300042_0000001_0_af2pred_dldesign_0_af2pred (protein)
chain: SSSSSPEREEVERLIARARELHAAGRRREALETLEEAKKIADAANDEELIDRIEELAKELSSSSS
B36: il2ra_site1_3nfp_sap_19_mot_HHH_b2_02224_000000045_0001_1_19_H_._HHH_b2_00858_af2_0001_0000400028_0000001_0_0001_af2pred_0001_af2pred_1 (protein)
chain: SSSSSTEVSRRVDELIRLLLKARSEEEIEEVFEEVRRLAEEANDPLAKRLVRLAYERARSSSSSS
B37: il2ra_site1_3nfp_normal_mot_HHH_b1_05128_000000175_0001_22_38_H_._HHH_b1_04028_0001_0000700042_0000001_0_af2pred_0001_af2pred_1 (protein)
chain: SSSSSDEHRRVFELIVQALRLLLEGNPEEARELLEEARELAEELGSEVAKELLESFERRLNSSSS

biological target: il2ra, P01589; assay: yeast display titration

Apparent Kd, inactive:
B1 no binding seen
B2 no binding seen
B3 no binding seen
B4 no binding seen
B5 no binding seen
B6 no binding seen
B7 no binding seen
B8 no binding seen
B9 no binding seen
B10 no binding seen
B11 no binding seen
B12 no binding seen
B13 no binding seen
B14 no binding seen
B15 no binding seen
B16 no binding seen
B17 > 407 nM
B18 no binding seen
B19 no binding seen
B20 no binding seen
B21 no binding seen
B22 no binding seen
B23 no binding seen
B24 no binding seen
B25 no binding seen
B26 no binding seen
B27 no binding seen
B28 no binding seen
B29 no binding seen
B30 no binding seen
B31 no binding seen
B32 no binding seen
B33 no binding seen
B34 no binding seen
B35 no binding seen
B36 no binding seen
B37 no binding seen

Already shown: entries from further up.
Apparent Kd, inactive:
B36 no binding seen
B37 no binding seen
